Results reported in PMC6720097.
Results are given in words; binding and its absence hold for the method and conditions named. Binding seen in cells or lysates may run through a third protein. These calls come from enrichment with a bait or labelling near it, and not all partners need be listed.

Chains of the proteins cited; added tags and fusions are not shown. Residues count along the entry.
UniProt Q7Z7K6: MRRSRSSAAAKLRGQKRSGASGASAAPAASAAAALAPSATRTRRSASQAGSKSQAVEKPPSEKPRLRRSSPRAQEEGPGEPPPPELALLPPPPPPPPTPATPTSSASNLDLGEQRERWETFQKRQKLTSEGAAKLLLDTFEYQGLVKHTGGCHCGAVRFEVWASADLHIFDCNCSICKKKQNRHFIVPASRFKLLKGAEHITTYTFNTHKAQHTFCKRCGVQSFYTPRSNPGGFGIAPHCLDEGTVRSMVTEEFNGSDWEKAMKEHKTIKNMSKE
UniProt P12277: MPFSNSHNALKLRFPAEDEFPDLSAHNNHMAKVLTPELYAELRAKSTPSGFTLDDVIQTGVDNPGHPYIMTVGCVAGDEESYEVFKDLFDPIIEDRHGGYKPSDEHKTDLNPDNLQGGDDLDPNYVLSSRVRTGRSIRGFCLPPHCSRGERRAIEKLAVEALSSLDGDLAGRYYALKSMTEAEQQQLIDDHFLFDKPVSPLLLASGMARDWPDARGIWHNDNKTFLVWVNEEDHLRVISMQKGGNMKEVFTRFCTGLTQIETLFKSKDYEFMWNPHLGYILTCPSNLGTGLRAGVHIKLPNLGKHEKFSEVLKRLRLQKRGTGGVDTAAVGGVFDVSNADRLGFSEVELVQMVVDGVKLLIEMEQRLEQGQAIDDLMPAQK
UniProt P06396, residues 28-782: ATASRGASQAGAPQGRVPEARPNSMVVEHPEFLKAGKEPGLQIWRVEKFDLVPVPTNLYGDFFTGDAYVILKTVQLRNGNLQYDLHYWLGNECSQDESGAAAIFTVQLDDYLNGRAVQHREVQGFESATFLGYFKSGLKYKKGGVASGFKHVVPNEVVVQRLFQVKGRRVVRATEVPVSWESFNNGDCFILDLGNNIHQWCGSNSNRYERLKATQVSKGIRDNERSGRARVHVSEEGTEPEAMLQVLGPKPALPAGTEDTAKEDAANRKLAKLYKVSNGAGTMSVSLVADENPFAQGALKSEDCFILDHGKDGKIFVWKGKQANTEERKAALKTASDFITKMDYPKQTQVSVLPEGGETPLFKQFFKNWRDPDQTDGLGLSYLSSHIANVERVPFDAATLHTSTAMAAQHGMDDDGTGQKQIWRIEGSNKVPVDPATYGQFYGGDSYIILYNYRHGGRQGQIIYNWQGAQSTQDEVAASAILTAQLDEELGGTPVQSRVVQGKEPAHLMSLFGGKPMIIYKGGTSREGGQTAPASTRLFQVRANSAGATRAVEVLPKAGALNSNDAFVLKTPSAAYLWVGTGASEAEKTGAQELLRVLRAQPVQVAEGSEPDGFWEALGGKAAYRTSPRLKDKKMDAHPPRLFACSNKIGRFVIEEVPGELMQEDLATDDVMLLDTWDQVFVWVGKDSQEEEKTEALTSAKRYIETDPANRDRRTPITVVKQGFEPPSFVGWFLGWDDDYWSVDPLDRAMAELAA
UniProt P09874: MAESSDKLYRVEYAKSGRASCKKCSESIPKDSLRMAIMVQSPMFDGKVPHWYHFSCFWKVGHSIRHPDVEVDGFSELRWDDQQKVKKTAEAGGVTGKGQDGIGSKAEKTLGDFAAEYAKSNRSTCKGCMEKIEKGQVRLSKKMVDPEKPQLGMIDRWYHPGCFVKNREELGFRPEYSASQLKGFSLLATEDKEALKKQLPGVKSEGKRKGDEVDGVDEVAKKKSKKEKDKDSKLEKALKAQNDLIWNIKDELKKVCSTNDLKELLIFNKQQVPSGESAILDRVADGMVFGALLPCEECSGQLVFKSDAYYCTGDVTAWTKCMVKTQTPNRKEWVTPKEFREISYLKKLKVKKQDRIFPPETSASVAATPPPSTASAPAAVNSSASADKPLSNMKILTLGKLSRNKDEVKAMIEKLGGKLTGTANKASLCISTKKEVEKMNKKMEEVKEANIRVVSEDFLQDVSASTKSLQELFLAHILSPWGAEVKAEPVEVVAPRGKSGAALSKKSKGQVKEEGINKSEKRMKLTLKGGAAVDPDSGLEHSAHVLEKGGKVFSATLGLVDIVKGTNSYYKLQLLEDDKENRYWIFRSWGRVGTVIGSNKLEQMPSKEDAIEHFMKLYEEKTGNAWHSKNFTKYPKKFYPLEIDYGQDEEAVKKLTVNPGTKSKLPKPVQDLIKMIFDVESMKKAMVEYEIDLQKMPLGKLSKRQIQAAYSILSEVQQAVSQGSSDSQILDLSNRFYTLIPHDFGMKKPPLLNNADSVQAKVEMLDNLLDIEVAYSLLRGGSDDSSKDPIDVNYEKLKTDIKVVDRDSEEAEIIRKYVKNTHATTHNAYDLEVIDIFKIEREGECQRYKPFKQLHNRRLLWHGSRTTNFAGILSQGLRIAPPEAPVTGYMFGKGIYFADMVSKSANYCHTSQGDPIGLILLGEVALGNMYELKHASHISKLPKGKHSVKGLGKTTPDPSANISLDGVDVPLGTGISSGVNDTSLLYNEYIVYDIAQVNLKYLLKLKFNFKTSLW
UniProt P07737: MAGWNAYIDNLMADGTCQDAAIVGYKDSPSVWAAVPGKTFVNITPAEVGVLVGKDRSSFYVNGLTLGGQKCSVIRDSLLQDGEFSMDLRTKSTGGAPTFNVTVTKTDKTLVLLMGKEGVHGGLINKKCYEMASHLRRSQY
UniProt P63165, residues 1-97: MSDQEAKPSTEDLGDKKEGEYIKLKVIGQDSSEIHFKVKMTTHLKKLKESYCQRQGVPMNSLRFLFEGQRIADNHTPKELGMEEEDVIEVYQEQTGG
UniProt P13010: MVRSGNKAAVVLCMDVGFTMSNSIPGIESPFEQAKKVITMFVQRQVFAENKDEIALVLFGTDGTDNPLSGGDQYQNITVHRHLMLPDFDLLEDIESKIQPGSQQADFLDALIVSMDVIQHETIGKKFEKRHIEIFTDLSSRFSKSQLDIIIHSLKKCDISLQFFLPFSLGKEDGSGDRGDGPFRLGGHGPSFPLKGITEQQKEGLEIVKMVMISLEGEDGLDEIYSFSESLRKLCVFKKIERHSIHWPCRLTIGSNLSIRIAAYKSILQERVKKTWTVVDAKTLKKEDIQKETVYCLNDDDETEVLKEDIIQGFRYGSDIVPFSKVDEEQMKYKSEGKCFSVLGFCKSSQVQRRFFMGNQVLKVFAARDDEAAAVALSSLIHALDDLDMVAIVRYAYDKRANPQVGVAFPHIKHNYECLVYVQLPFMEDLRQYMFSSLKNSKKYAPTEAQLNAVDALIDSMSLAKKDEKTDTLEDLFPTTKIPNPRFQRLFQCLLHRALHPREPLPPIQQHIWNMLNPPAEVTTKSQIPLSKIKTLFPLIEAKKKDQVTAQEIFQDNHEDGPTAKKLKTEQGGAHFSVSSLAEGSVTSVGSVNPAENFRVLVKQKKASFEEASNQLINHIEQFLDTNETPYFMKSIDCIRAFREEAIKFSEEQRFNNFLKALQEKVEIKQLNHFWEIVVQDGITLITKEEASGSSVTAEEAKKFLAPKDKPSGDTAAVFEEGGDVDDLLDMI
UniProt P12956: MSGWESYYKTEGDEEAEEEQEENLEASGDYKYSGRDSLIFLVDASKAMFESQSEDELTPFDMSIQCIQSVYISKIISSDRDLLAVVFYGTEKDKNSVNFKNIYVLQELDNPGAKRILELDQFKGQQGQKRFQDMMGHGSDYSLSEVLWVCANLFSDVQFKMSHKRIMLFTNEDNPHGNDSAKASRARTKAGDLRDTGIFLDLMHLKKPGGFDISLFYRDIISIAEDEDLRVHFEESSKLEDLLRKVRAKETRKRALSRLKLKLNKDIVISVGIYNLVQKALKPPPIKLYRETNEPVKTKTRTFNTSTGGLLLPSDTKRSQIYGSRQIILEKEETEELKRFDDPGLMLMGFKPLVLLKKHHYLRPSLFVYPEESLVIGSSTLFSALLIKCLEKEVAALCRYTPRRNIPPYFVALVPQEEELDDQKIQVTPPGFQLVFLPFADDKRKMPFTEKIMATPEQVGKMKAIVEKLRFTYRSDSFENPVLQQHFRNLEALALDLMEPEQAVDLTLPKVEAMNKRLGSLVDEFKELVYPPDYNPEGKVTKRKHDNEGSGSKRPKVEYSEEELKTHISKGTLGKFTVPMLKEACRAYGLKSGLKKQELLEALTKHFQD

B1: Isocitrate dehydrogenase [NADP] (IDHP) (protein, UniProt P48735 40-452)
chain: ADKRIKVAKPVVEMDGDEMTRIIWQFIKEKLILPHVDIQLKYFDLGLPNRDQTDDQVTIDSALATQKYSVAVKCATITPDEARVEEFKLKKMWKSPNGTIRNILGGTVFREPIICKNIPRLVPGWTKPITIGRHAHGDQYKATDFVADRAGTFKMVFTPKDGSGVKEWEVYNFPAGGVGMGMYNTDESISGFAHSCFQYAIQKKWPLYMSTKNTILKAYDGRFKDIFQEIFDKHYKTDFDKNKIWYEHRLIDDMVAQVLKSSGGFVWACKNYDGDVQSDILAQGFGSLGLMTSVLVCPDGKTIEAEAAHGTVTRHYREHQKGRPTSTNPIASIFAWTRGLEHRGKLDGNQDLIRFAQMLEKVCVETVESGAMTKDLAGCIHGLSNVKLNEHFLNTTDFLDTIKSNLDRALGRQ
B2: ATP-dependent RNA helicase (DDX1) (protein, UniProt Q92499 1-740)
chain: MAAFSEMGVMPEIAQAVEEMDWLLPTDIQAESIPLILGGGDVLMAAETGSGKTGAFSIPVIQIVYETLKDQQEGKKGKTTIKTGASVLNKWQMNPYDRGSAFAIGSDGLCCQSREVKEWHGCRATKGLMKGKHYYEVSCHDQGLCRVGWSTMQASLDLGTDKFGFGFGGTGKKSHNKQFDNYGEEFTMHDTIGCYLDIDKGHVKFSKNGKDLGLAFEIPPHMKNQALFPACVLKNAELKFNFGEEEFKFPPKDGFVALSKAPDGYIVKSQHSGNAQVTQTKFLPNAPKALIVEPSRELAEQTLNNIKQFKKYIDNPKLRELLIIGGVAARDQLSVLENGVDIVVGTPGRLDDLVSTGKLNLSQVRFLVLDEADGLLSQGYSDFINRMHNQIPQVTSDGKRLQVIVCSATLHSFDVKKLSEKIMHFPTWVDLKGEDSVPDTVHHVVVPVNPKTDRLWERLGKSHIRTDDVHAKDNTRPGANSPEMWSEAIKILKGEYAVRAIKEHKMDQAIIFCRTKIDCDNLEQYFIQQGGGPDKKGHQFSCVCLHGDRKPHERKQNLERFKKGDVRFLICTDVAARGIDIHGVPYVINVTLPDEKQNYVHRIGRVGRAERMGLAISLVATEKEKVWYHVCSSRGKGCYNTRLKEDGGCTIWYNEMQLLSEIEEHLNCTISQVEPDIKVPVDEFDGKVTYGQKRAAGGGSYKGHVDILAPTVQELAALEKEAQTSFLHLGYLPNQLFRTF
B3: 14-3-3 protein theta (1433T) (protein, UniProt P27348 1-245)
chain: MEKTELIQKAKLAEQAERYDDMATCMKAVTEQGAELSNEERNLLSVAYKNVVGGRRSAWRVISSIEQKTDTSDKKLQLIKDYREKVESELRSICTTVLELLDKYLIANATNPESKVFYLKMKGDYFRYLAEVACGDDRKQTIDNSQGAYQEAFDISKKEMQPTHPIRLGLALNFSVFYYEILNNPELACTLAKTAFDEAIAELDTLNEDSYKDSTLIMQLLRDNLTLWTSDSAGEECDAAEGAEN
B4: Alpha-crystallin B chain (CRYAB) (protein, UniProt P02511 1-175)
chain: MDIAIHHPWIRRPFFPFHSPSRLFDQFFGEHLLESDLFPTSTSLSPFYLRPPSFLRAPSWFDTGLSEMRLEKDRFSVNLDVKHFSPEELKVKVLGDVIEVHGKHEERQDEHGFISREFHRKYRIPADVDPLTITSSLSSDGVLTVNGPRKQVSGPERTIPITREEKPAVTAAPKK
B5: Carbonyl reductase [NADPH] 1 (CBR1) (protein, UniProt P16152 1-277)
chain: MSSGIHVALVTGGNKGIGLAIVRDLCRLFSGDVVLTARDVTRGQAAVQQLQAEGLSPRFHQLDIDDLQSIRALRDFLRKEYGGLDVLVNNAGIAFKVADPTPFHIQAEVTMKTNFFGTRDVCTELLPLIKPQGRVVNVSSIMSVRALKSCSPELQQKFRSETITEEELVGLMNKFVEDTKKGVHQKEGWPSSAYGVTKIGVTVLSRIHARKLSEQRKGDKILLNACCPGWVRTDMAGPKATKSPEEGAETPVYLALLPPDAEGPHGQFVSEKRVEQW

Molecular target: Small ubiquitin-related modifier 2 (SUMO2) (human (endogenous in frontal cortex)) (UniProt P61956)
Test: affinity purification with mass spectrometry; IP with a mouse anti-SUMO 2/3 IgG and magnetic beads from nuclear lysates of frontal cortex of two FXTAS and two control cases; nuclei lysed and heated in an SDS/Triton/deoxycholate buffer, then diluted; 50 mM N-ethylmaleimide in the buffers; 4 °C; on-bead trypsin digestion, LC-MS/MS

| binding | Molecule |
| --- | --- |
| binds | Centromere protein V (CENPV) (from UniProt Q7Z7K6 1-275) |
| binds | Creatine kinase B-type (KCRB) (from UniProt P12277 1-381) |
| binds | Gelsolin (GSN) (from UniProt P06396 28-782) |
| binds | Poly [ADP-ribose] polymerase 1 (PARP1) (from UniProt P09874 1-1014) |
| binds | Profilin-1 (PROF1) (from UniProt P07737 1-140) |
| binds | Small ubiquitin-related modifier 1 (SUMO1) (from UniProt P63165 1-97) |
| binds | X-ray repair cross-complementing protein 5 (XRCC5) (from UniProt P13010 1-732) |
| binds | X-ray repair cross-complementing protein 6 (XRCC6) (from UniProt P12956 1-609) |
| binds | p62/sequestosome-1 (p62/SQSTM1) (from UniProt Q13501 1-440) |
| binds | B1 |
| binds | B2 |
| binds | B3 |
| binds | B4 |
| binds | B5 |
